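Genome-wide siRNA knockdown in TC32 Ewing sarcoma cells, comparing luciferase light from an NR0B1-promoter reporter with a CMV-promoter reporter 48 hours after transfection. Each siRNA was applied at 20 nM. A z-score of the log NR0B1-over-CMV signal, less the median of siRNAs with the same seed; more negative means a stronger specific loss of the NR0B1 reporter.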

The strongest results of the screen are mostly left out here. Sequences are the guide (antisense) strand, without overhang.

siRNA | target gene | seed-corrected z-score
UCCUUAUAAAUUGUAGUCC | DNAH14 | -0.3695
UACUGUAACAGCUUAGAUA | TMEM80 | 0.09284
UAUGUUGAUCCGGCUCUGC | CCDC60 | 0.6012
AAAGUAAGCACAGUCGAAG | AKR1E2 | -0.3168
UUGCGUACUCUUUCAGCUC | AP1B1 | -1.52
AAAUUGUCAAGCAUCUUAC | NCAPD2 | 0.3062
UAUCGAUUUGAAGUUGCCC | DNAJB6 | 0.1662
UAAUUGUUGACCUUAUCAG | VPS33A | -0.1573
UUACCCUUAGCAUAGGUCG | UBTFL5 | 0.1059
UGAAAACUCAGUCACCAGC | NOB1 | 0.008567
UCACUAUCGAUGUCAUACC | IGSF1 | -0.3328
UUAUCAAUCUUGGGAGUGC | RBPJ | 0.4465
AGAGAUAUCACUGGGAUCC | DHDDS | -0.06184
UUUUCAAAUACAGGUCACG | AMPD3 | 0.7128
UGAUCUUGAAUCAACGUGG | VPS35 | -1.409
UUAGUUGCAUGCGAGUUGC | SALL2 | -0.7945
UCUGUGGAAGGGAUCUUCU | OR14A16 | 0.3941
AUCUCGAAAAGCAAGAUGC | TSR1 | 0.8367
UAAUAGUCUCUAAUGAUCC | LOC647070 | 0.2024
UACUUUUAUAGCCUUGUUC | LOC646736 | 1.619
UAAUCAGCACCAGAAUUCC | URM1 | 1.31
AUAGGGAUUUUCCAUAUCG | ANXA10 | -0.1444
UAAAGGUCCUGCUGCAUUC | ZNF845 | 0.4349
UUUCUGUGCAAACUCCUUC | DHDH | 1.277
UUUCCGAAUUCUCACAUCC | PHC3 | 0.0527
UAAGUGGUGAUCGAGCUCC | MAML3 | 1.027
UAUGUUGCCCUCAGCCUCC | TMIGD2 | -1.705
UCUGAUCUCAUGGUUGUUU | STOML2 | 0.4441
UCACGAACACGGUAUACUG | PCDHA5 | -0.2686
UUCGUUCACAAGUUUCUUC | MX1 | 0.1087
AUAGGAUUCAAACCUCUGC | EIF3L | -0.7289
UGUUAGCUAAACACUGCUC | LINS1 | -0.9935
AAACGAUCAAGAGUUUGCC | VPS13D | -0.5561
UUAGUCACUCUAGUCUUGC | KRT24 | -0.9356
UACGGUGUAUCUGUACUGG | LRRC37A17P | 1.478
UCGAGCAAUACCAGUAUCU | SNRPB | -1.511
UAUAUGAUCAUCCCUUGCC | ZNF420 | 0.6966
UCUGCGAUGAAGUUGUACU | HTRA2 | -0.3235
UUACGGUAUUUUCUUUUGC | TNP1 | -0.1025
UGACUUUAACCUGUAGUCG | WASF2 | -0.1873
UAUCUUUUUCUUGAGCGCG | DACT3 | -0.2311
UUGCUGCCUAUGAUCUUCU | KLK8 | -1.359
UAUCUUCAUCUGAAGCUCC | DNAJB4 | -0.09689
UGCUGAGCAACAUCAGGCC | LOC728999 | -0.2013
UUUUAUAGUCUCGAUGUCC | PTGFR | 1.214
UUCAUGUACAUCUUAGUGG | DHX37 | 0.3134
UACGAAAUCGCCGUGGUCA | IGFLR1 | 0.2987
AAGUGCACCAGUGAUAAUG | CHN1 | 0.9249
AUUAAACCCAUUGACGUGC | GNAL | -0.1725
UUCUCAUCCACGUUGAGGA | HTR3A | -0.592
AAGGCUACCAGAUCAAUGC | UBAP2 | 1.626
UAUGCUUCACGUGCAUUGC | CLVS1 | -0.3421
UUUGAUCCUCGCAUAGCCG | KIF20A | -0.221
ACACCUUCCACAUUUGUUC | WBP1 | 1.123
UCAGUAAAUUCUGAUGUCU | CHGA | 0.2107
AUAGGGCAAAGGUUUAGAG | AMZ2 | 0.386
UAGUCGAAAAACUCUUCCG | BTRC | 0.2216

Once more, the final 7:

siRNA,target gene,seed-corrected z-score
AAGGCUACCAGAUCAAUGC,UBAP2,1.626
UAUGCUUCACGUGCAUUGC,CLVS1,-0.3421
UUUGAUCCUCGCAUAGCCG,KIF20A,-0.221
ACACCUUCCACAUUUGUUC,WBP1,1.123
UCAGUAAAUUCUGAUGUCU,CHGA,0.2107
AUAGGGCAAAGGUUUAGAG,AMZ2,0.386
UAGUCGAAAAACUCUUCCG,BTRC,0.2216

The results are deposited in PubChem (AID1159506; NCATS, 2015).